Assay results taken from patent US9116112B2, “UV protective skin treatment compositions and screening methods” (JR Chem LLC, priority 2011, dated 2015).
Some of these results come from one statement about several compounds together.

Assay: Briggs-Rauscher Oscillation Reaction Method (BROM) antioxidant capacity
Assay type: biochemical
Conditions: text b54, summary of Table 3

SMILES	BROM values
OC[C@H]1O[C@@H](Oc2ccc(O)cc2)[C@H](O)[C@@H](O)[C@@H]1O [Arbutin]	greater than 5 s/μg
CC(C)c1c(C(=O)Nc2ccccc2)c(-c2ccccc2)c(-c2ccc(F)cc2)n1CC[C@@H](O)C[C@@H](O)CC(=O)O [Atorvastatin (Lipitor), Atorvastatin]	greater than 5 s/μg
Cc1cc(C(C)(C)C)c(O)c(C(C)(C)C)c1 [BHT, butylatedhydroxytoluene]	greater than 5 s/μg
Oc1cccc(O)c1 [Resorcinol]	greater than 5 s/μg
O=c1[nH]c(=O)c2[nH]c(=O)[nH]c2[nH]1 [Uric Acid, Uric acid]	greater than 5 s/μg
